Test results reported in patent publication US6737383B1, “Herbicidal oxadiazolidines” (priority 1999, dated 2004).
At least one compound was matched to its structure with a doubt left.

System: giant foxtail
Assay: Test B pre/postemergence giant foxtail
Format: in vivo, Setaria faberii
Conditions: Postemergence, Rate 500 g/ha; scale of 0 to 10 where 0 is no effect and 10 is complete control
Text: Seeds of bedstraw (Galium aparine), blackgrass (Alopecurus myosuroides), surinam grass (Brachiaria decumbens), cocklebur (Xanthium strumarium), corn (Zea mays), crabgrass (Digitaria sanguinalis), giant foxtail (Setaria faberii), morningglory (Ipomoea hederacea), pigweed (Amaranthus retroflexus), rape (Brassica napus), soybean (Glycine max), sugar beet (Beta vulgaris), velvetleaf (Abutilon theophrasti), wheat (Triticum aestivum), wild oat (Avena fatua) and purple nutsedge (Cyperus rotundus) tubers were planted and treated preemnergence with test chemicals formulated in a non-phytotoxic solvent mixture which included a surfactant.
At the same time, these crop and weed species were also treated with postemergence applications of test chemicals formulated in the same manner. Plants ranged in height from 2 to 18 cm (1- to 4-leaf stage) for postemergence treatments. Plant species in the flood test consisted of rice (Oryza sativa), smallflower flatsedge (Cyperus difformis), duck salad (Heteranthera limosa) and bamyardgrass (Echinochloa crus-galli) grown to the 2-leaf stage for testing. Treated plants and controls were maintained in a greenhouse for twelve to sixteen days, after which all species were compared to controls and visually evaluated. Plant response ratings, summarized in Table B, are based on a scale of 0 to 10 where 0 is no effect and 10 is complete control. […]

Q: `CC(C)N(C(=O)n1oc(=O)n(C(C)C(=O)N(C)C)c1=O)c1ccccc1` (stereo not shown) [Compound 479] was tested. Which “Giant foxtail plant response rating” value did it give?
A: The value was 9.
